Some of the results follow.
Tests used:
Test in all cases: log2 fold change, soluble protein after heating vs DMSO (PISA); higher = thermal stabilisation; K562 lysate, 10 uM; active = over 0.2 and 3.5 SD of the protein, either way, in both replicates (recomputed)
[1] = compound: NCC(=O)Nc1ccc(-n2nc(C(F)(F)F)cc2-c2ccc3c(ccc4ccccc43)c2)cc1
Outline: (§1)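 Pellets of K562 cells were dounce-homogenised in PBS pH 7.4 with 1 mM MgCl2, and the crude extract was held at 1 mg/mL protein for a 30 min treatment with 10 μM compound. Aliquots were heated for 3 min over 48°C-58°C and pooled before NP-40 was added to 0.5% at 4°C. The supernatant from 21,000xg for 90 min was quantified by TMTpro 16plex LC-MS/MS with channel sums equalised. Values are reported from duplicates as log-two fold change in thermal stability relative to solvent controls.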

Protein sequences, listed by entry. Tags and fused reporters are not part of them. Lines headed by an entry give the natural chain unless they say otherwise; changes in a name come on top.
UniProt Q01518, whole entry, looked up: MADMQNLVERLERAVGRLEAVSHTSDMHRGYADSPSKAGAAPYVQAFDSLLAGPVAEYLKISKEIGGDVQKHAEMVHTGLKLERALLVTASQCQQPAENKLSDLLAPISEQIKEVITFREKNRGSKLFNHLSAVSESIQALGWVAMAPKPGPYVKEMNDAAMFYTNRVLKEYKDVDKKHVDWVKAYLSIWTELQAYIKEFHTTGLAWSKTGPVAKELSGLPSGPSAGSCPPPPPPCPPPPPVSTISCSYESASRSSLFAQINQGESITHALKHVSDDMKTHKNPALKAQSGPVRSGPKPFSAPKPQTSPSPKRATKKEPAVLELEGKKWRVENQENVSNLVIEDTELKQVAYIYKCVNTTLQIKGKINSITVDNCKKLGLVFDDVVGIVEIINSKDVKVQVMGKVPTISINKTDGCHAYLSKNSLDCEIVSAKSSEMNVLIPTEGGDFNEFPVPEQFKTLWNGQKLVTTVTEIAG
UniProt O43852: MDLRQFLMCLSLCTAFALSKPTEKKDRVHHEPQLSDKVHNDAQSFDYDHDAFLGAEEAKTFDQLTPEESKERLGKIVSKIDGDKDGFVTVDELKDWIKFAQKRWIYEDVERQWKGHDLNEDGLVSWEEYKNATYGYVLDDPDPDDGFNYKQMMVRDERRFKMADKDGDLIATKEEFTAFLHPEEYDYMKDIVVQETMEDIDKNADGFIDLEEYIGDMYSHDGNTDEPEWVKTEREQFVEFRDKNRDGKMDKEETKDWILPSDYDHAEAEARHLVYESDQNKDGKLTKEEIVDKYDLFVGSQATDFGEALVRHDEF
UniProt P22676: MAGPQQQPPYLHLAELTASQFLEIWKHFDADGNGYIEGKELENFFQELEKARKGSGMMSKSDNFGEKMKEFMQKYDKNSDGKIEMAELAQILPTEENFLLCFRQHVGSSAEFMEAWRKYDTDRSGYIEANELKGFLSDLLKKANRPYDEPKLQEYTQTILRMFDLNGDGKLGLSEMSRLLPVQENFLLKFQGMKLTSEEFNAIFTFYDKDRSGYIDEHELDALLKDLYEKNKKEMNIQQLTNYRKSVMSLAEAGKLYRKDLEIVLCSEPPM
UniProt Q5JPI3: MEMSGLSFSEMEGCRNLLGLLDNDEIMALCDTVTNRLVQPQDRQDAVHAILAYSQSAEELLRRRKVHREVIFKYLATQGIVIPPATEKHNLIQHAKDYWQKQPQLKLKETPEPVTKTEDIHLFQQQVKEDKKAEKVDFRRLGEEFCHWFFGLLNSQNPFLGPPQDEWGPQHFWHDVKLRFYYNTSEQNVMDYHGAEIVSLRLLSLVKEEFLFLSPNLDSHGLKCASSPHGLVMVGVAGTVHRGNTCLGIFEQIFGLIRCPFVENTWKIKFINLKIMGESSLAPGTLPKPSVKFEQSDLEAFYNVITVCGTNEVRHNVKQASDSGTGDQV
UniProt Q8WUQ7: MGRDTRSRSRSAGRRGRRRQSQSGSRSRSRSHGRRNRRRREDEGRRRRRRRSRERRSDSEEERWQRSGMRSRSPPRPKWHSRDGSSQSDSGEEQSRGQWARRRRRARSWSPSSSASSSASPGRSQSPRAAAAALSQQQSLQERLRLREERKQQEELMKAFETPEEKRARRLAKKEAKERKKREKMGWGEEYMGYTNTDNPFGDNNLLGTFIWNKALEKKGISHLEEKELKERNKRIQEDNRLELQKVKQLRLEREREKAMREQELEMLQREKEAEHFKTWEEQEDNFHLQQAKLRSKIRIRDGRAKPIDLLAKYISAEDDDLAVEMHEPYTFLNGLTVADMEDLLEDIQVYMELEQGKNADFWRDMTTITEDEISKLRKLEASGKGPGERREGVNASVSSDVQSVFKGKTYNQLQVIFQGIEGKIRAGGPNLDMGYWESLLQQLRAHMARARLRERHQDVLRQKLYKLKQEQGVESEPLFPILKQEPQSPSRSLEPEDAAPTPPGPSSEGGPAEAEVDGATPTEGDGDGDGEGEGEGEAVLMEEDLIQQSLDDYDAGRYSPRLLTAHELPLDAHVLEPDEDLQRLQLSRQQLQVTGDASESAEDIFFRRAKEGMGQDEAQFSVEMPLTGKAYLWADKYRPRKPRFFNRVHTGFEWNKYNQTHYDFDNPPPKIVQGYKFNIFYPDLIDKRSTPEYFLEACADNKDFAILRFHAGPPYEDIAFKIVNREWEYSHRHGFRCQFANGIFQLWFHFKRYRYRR
UniProt Q5T6V5: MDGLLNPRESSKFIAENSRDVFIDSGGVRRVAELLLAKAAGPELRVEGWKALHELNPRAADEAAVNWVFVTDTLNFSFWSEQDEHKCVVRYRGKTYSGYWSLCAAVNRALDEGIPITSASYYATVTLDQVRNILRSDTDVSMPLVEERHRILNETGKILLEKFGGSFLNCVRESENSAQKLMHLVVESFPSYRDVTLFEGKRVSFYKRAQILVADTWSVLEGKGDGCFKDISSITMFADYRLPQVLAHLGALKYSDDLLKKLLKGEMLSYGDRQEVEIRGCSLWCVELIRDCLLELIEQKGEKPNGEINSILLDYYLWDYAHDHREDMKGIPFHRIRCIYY
UniProt Q96NL8: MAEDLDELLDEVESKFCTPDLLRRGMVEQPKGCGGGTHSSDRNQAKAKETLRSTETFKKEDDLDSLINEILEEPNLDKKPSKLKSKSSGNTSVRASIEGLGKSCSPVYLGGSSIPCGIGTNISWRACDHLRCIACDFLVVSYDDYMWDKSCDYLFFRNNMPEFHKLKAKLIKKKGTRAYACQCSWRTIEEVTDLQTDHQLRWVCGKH
UniProt Q9Y6W3: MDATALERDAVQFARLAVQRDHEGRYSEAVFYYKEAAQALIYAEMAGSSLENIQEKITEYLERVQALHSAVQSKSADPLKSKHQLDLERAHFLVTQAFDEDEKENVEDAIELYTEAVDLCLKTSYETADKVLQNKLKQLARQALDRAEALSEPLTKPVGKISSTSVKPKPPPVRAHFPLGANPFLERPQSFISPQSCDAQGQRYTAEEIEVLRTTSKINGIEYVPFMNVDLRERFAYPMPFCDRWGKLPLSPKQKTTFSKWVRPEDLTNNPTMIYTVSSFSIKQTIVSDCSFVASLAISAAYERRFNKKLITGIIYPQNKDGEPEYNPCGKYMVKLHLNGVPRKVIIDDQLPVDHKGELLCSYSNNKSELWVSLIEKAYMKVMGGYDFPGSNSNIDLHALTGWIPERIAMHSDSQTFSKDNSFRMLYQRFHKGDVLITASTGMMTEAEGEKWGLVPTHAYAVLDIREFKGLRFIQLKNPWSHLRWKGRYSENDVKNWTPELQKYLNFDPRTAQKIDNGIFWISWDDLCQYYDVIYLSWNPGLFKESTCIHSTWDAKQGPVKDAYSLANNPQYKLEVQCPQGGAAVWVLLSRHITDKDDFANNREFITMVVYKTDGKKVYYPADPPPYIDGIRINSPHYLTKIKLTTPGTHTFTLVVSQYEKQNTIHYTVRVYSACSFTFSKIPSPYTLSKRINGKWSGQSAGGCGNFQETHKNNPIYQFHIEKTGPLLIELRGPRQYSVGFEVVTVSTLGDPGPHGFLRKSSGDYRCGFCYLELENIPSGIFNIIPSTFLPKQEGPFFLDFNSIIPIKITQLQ
UniProt O75155: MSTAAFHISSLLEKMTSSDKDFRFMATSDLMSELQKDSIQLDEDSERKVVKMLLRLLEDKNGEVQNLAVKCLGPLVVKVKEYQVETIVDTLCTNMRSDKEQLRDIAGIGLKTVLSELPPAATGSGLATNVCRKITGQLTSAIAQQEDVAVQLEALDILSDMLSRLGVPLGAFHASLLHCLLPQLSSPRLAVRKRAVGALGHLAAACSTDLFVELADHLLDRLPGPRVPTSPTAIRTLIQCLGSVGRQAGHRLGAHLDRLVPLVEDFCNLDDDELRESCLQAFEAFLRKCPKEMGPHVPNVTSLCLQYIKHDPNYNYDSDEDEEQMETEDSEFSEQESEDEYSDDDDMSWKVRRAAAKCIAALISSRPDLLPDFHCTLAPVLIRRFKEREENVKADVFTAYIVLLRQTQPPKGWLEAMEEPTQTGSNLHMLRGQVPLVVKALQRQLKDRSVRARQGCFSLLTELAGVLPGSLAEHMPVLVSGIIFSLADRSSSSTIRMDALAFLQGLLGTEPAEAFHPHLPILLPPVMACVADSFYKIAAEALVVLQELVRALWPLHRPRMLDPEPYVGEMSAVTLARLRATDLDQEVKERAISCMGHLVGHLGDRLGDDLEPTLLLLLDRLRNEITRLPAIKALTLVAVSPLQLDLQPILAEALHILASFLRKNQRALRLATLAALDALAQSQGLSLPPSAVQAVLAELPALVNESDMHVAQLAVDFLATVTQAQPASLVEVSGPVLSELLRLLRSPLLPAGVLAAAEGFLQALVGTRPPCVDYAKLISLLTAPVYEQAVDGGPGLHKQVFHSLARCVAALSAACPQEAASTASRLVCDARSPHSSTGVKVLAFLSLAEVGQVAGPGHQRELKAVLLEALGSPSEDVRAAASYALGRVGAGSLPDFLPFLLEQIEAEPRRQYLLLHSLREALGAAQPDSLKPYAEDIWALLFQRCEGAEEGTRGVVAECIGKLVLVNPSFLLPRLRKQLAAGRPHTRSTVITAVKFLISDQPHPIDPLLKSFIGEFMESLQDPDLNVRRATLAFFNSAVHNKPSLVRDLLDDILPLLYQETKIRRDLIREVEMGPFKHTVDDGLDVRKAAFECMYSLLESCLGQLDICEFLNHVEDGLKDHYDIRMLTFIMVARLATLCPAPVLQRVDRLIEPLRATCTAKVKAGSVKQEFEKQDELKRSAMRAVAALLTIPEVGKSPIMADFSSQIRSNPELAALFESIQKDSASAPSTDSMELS
UniProt Q7L1Q6: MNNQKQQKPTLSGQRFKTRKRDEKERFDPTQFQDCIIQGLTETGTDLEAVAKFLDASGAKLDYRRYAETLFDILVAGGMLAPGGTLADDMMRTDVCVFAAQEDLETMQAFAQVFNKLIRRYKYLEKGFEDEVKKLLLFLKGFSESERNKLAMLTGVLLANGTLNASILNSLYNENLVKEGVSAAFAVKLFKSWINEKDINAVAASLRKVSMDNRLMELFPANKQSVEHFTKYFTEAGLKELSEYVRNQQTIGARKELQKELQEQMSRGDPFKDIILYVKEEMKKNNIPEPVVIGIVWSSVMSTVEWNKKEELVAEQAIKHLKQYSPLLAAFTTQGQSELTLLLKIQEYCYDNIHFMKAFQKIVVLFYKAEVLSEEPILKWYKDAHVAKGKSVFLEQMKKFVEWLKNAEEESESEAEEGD
UniProt Q14444, whole entry, looked up: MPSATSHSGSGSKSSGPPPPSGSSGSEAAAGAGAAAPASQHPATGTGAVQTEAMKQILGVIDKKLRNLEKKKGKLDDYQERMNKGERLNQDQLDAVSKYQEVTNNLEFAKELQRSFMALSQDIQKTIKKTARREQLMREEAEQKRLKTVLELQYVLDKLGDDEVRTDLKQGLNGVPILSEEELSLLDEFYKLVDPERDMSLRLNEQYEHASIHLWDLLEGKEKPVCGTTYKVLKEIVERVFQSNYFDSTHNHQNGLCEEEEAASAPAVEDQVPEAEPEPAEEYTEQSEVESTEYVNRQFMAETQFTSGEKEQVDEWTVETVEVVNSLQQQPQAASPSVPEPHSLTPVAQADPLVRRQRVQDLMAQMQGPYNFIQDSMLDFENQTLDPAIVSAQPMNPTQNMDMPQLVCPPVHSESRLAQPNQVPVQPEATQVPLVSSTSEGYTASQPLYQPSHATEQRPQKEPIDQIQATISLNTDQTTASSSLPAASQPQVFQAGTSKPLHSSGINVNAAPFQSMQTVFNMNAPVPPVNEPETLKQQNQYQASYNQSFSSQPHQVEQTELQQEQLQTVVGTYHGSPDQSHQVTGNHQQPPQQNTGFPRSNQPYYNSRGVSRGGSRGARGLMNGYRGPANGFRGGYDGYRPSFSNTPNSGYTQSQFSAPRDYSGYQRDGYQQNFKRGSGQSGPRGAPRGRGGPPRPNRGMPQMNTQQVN
UniProt Q6ZSJ8: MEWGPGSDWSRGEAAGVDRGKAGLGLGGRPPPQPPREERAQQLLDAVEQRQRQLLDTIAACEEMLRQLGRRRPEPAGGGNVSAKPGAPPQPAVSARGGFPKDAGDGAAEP
UniProt Q9BVC5: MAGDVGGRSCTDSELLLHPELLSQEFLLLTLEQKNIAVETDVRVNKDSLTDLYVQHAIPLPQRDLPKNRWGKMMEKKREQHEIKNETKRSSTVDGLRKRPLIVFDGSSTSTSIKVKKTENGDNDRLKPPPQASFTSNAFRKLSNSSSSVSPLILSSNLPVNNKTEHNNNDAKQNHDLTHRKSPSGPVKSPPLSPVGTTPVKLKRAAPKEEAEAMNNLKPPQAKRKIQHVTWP
UniProt Q8N8R5: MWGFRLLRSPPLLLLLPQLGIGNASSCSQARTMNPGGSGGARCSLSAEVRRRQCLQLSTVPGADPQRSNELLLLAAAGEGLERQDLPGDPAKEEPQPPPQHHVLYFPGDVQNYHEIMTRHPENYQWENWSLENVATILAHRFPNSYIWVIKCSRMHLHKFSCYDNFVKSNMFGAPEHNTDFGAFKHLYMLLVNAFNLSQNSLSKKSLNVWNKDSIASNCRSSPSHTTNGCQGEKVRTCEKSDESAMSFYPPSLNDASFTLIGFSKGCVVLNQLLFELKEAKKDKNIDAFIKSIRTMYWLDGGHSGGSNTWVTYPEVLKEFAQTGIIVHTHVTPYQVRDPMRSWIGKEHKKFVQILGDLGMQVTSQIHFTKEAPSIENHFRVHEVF

vorinostat = compound: O=C(CCCCCCC(=O)Nc1ccccc1)NO [vorinostat]
Outline: as §1

silmitasertib = compound: O=C(O)c1ccc2c(c1)nc(Nc1cccc(Cl)c1)c1ccncc12 [silmitasertib]
Outline: as §1

[2] = compound: O=C1NC(=O)C(c2cnc3ccccn23)=C1c1cn2c3c(cc(F)cc13)CN(C(=O)N1CCCCC1)CC2
Outline: as §1

entospletinib = compound: c1cn2cc(-c3ccc4cn[nH]c4c3)nc(Nc3ccc(N4CCOCC4)cc3)c2n1 [entospletinib]
Outline: as §1

Row | Target | log2 fold change [1] | log2 fold change (vorinostat) | log2 fold change (silmitasertib) | log2 fold change [2] | log2 fold change (entospletinib)
1 | CAP1 (UniProt Q01518) | inactive: -0.001 | inactive: 0.112 | inactive: -0.005 | inactive: 0.008 | inactive: 0.015
2 | C2CD5 isoform 3 (UniProt Q86YS7) | inactive: 0.01 | inactive: 0.086 | inactive: -0.059 | inactive: 0.049 | inactive: 0.009
3 | CAPZA2 (UniProt P47755) | inactive: -0.014 | inactive: 0.063 | inactive: 0.019 | inactive: -0.011 | inactive: -0.028
4 | CALU isoform 3 (UniProt O43852) | inactive: 0.003 | inactive: 0.142 | inactive: -0.029 | inactive: -0.023 | inactive: -0.002
5 | C6orf89 isoform 2 (UniProt Q6UWU4) | inactive: 0.03 | inactive: 0.214 | inactive: -0.017 | inactive: -0.045 | inactive: -0.019
6 | CA13 (UniProt Q8N1Q1) | inactive: 0.038 | inactive: 0.171 | inactive: 0.013 | inactive: 0.046 | inactive: -0.002
7 | CARD11 (UniProt Q9BXL7) | inactive: -0.113 | active: -0.406 | inactive: 0.001 | inactive: 0.004 | inactive: -0.031
8 | BUB3 (UniProt O43684) | inactive: 0.016 | inactive: -0.09 | inactive: -0.007 | inactive: -0.029 | inactive: 0.002
9 | C12orf45 (UniProt Q8N5I9) | inactive: 0.063 | inactive: 0.012 | inactive: -0.059 | inactive: -0.027 | inactive: 0
10 | CA2 (UniProt P00918) | inactive: 0.116 | inactive: 0.127 | inactive: -0.034 | inactive: -0.024 | inactive: 0.098
11 | CALB2 (UniProt P22676) | inactive: 0.067 | inactive: 0.156 | inactive: 0.017 | inactive: 0.063 | inactive: 0.019
12 | C3orf38 (UniProt Q5JPI3) | inactive: -0.021 | inactive: 0.004 | inactive: -0.038 | inactive: 0.014 | inactive: 0.037
13 | C1orf50 (UniProt Q9BV19) | inactive: -0.009 | inactive: 0.097 | inactive: -0.115 | inactive: 0.032 | inactive: 0.026
14 | CALM2 (UniProt P0DP24) | inactive: 0.008 | inactive: -0.027 | inactive: 0.064 | inactive: -0.121 | inactive: -0.048
15 | C11orf68 isoform 3 (UniProt Q9H3H3) | inactive: -0.017 | inactive: -0.149 | inactive: -0.021 | inactive: -0.043 | inactive: -0.033
16 | CACUL1 (UniProt Q86Y37) | inactive: 0.176 | active: -0.543 | inactive: 0.024 | inactive: -0.081 | inactive: -0.056
17 | CALU isoform 4 (UniProt O43852) | inactive: 0.008 | inactive: 0.12 | inactive: 0.015 | inactive: -0.017 | inactive: 0.025
18 | CACYBP (UniProt Q9HB71) | inactive: 0.009 | inactive: 0.087 | inactive: -0.01 | inactive: -0.013 | inactive: 0.011
19 | CACTIN isoform 2 (UniProt Q8WUQ7) | inactive: 0.034 | inactive: -0.141 | inactive: -0.049 | inactive: 0.018 | inactive: -0.019
20 | CAPZB isoform 2 (UniProt P47756) | inactive: 0.012 | inactive: 0.02 | inactive: 0.001 | inactive: -0.018 | inactive: 0.01
21 | C9orf64 (UniProt Q5T6V5) | inactive: -0.019 | inactive: -0.088 | inactive: -0.005 | inactive: 0.016 | inactive: 0.003
22 | C8orf37 (UniProt Q96NL8) | inactive: 0.206 | inactive: 0.084 | inactive: 0.044 | inactive: 0.008 | inactive: -0.035
23 | CAPZB (UniProt P47756) | inactive: -0.001 | inactive: 0.062 | inactive: -0.007 | inactive: -0.013 | inactive: 0.015
24 | CAAP1 (UniProt Q9H8G2) | inactive: -0.023 | inactive: -0.033 | inactive: -0.047 | inactive: 0.011 | inactive: -0.003
25 | C7orf26 (UniProt Q96N11) | inactive: 0.139 | inactive: -0.191 | inactive: -0.006 | inactive: -0.084 | inactive: 0.205
26 | CAPN7 (UniProt Q9Y6W3) | inactive: -0.049 | inactive: -0.153 | inactive: 0.013 | inactive: 0.022 | inactive: 0.024

Reformatted in CSV form: entries from further up.
Row,Target,log2 fold change [1],log2 fold change (vorinostat),log2 fold change (silmitasertib),log2 fold change [2],log2 fold change (entospletinib)
17,CALU isoform 4 (UniProt O43852),inactive: 0.008,inactive: 0.12,inactive: 0.015,inactive: -0.017,inactive: 0.025
18,CACYBP (UniProt Q9HB71),inactive: 0.009,inactive: 0.087,inactive: -0.01,inactive: -0.013,inactive: 0.011
19,CACTIN isoform 2 (UniProt Q8WUQ7),inactive: 0.034,inactive: -0.141,inactive: -0.049,inactive: 0.018,inactive: -0.019

More results:

Row | Target | log2 fold change [1] | log2 fold change (vorinostat) | log2 fold change (silmitasertib) | log2 fold change [2] | log2 fold change (entospletinib)
27 | C5orf22 (UniProt Q49AR2) | inactive: 0.025 | inactive: 0.079 | inactive: 0.025 | inactive: -0.035 | inactive: 0.004
28 | BUB1 (UniProt O43683) | inactive: 0.096 | inactive: -0.189 | inactive: 0.021 | inactive: -0.022 | inactive: -0.009
29 | C1orf198 (UniProt Q9H425) | inactive: 0.111 | inactive: 0.042 | inactive: -0.048 | inactive: -0.034 | inactive: 0.048
30 | CAND2 (UniProt O75155) | inactive: 0.003 | inactive: -0.033 | inactive: -0.007 | inactive: -0.002 | inactive: -0.032
31 | CAMKK1 isoform 2 (UniProt Q8N5S9) | inactive: 0.006 | inactive: -0.255 | inactive: 0.072 | inactive: -0.007 | inactive: -0.078
32 | BZW1 isoform 3 (UniProt Q7L1Q6) | inactive: -0.027 | inactive: -0.044 | inactive: 0.03 | inactive: -0.026 | inactive: 0.022
33 | C17orf75 (UniProt Q9HAS0) | inactive: -0.014 | inactive: -0.118 | inactive: 0.02 | inactive: 0.015 | inactive: -0.056
34 | C7orf25 isoform 2 (UniProt Q9BPX7) | inactive: -0.004 | inactive: -0.151 | inactive: 0.12 | inactive: -0.068 | inactive: -0.05
35 | CAPRIN1 (UniProt Q14444) | inactive: 0.03 | inactive: 0.153 | inactive: -0.014 | inactive: -0.016 | inactive: 0.015
36 | C6orf47 (UniProt O95873) | inactive: 0.006 | inactive: 0.159 | inactive: 0.018 | inactive: -0.022 | inactive: -0.098
37 | C1orf122 (UniProt Q6ZSJ8) | inactive: -0.024 | inactive: -0.047 | inactive: 0.034 | inactive: 0.024 | inactive: -0.035
38 | C2orf49 (UniProt Q9BVC5) | inactive: 0.053 | inactive: -0.079 | inactive: -0.065 | inactive: 0.001 | inactive: -0.041
39 | CAPN1 (UniProt P07384) | inactive: -0.006 | inactive: 0.047 | inactive: -0.005 | inactive: -0.007 | inactive: 0.02
40 | C8orf82 (UniProt Q6P1X6) | inactive: 0.008 | inactive: -0.008 | inactive: -0.005 | inactive: -0.022 | inactive: -0.014
41 | CA1 (UniProt P00915) | inactive: 0.006 | inactive: 0.192 | inactive: 0.004 | inactive: -0.03 | inactive: -0.021
42 | C18orf25 (UniProt Q96B23) | inactive: 0.03 | inactive: 0.089 | inactive: -0.147 | inactive: -0.034 | inactive: 0.036
43 | BYSL (UniProt Q13895) | inactive: -0.012 | inactive: -0.079 | inactive: 0.054 | inactive: -0.019 | inactive: 0.017
44 | C2orf69 (UniProt Q8N8R5) | inactive: -0.017 | inactive: 0.032 | inactive: -0.055 | inactive: -0.009 | inactive: -0.006
45 | C11orf54 (UniProt Q9H0W9) | inactive: 0.008 | inactive: 0.155 | inactive: -0.048 | inactive: -0.01 | inactive: -0.009
46 | C2orf68 (UniProt Q2NKX9) | inactive: 0.055 | inactive: 0.064 | inactive: -0.028 | inactive: 0.019 | inactive: -0.009
47 | CAD (UniProt H7BZB3) | inactive: 0.113 | inactive: -0.54 | inactive: -0.006 | – | inactive: -0.008
48 | C20orf27 isoform 2 (UniProt Q9GZN8) | inactive: -0.009 | inactive: -0.007 | inactive: -0.043 | inactive: 0.017 | inactive: 0.044
49 | C15orf41 (UniProt Q9Y2V0) | inactive: -0.124 | active: -0.362 | inactive: -0.011 | inactive: -0.012 | inactive: 0.04
50 | CAPN15 (UniProt O75808) | inactive: 0.028 | active: -0.504 | inactive: -0.016 | inactive: -0.081 | inactive: -0.043
51 | CAND1 (UniProt Q86VP6) | inactive: 0.015 | inactive: 0.105 | inactive: -0.009 | inactive: -0.003 | inactive: 0.003
52 | C2CD2L (UniProt O14523) | inactive: 0.03 | inactive: -0.015 | inactive: 0.013 | inactive: 0.058 | inactive: 0.07
